In paper PMC8487046 one finds binding data, which are given here for 2 substances.

By UniProt entry, the sequences of proteins in these tests, tags left out. Residues count along the entry.
UniProt Q96GP6, residues 44-871: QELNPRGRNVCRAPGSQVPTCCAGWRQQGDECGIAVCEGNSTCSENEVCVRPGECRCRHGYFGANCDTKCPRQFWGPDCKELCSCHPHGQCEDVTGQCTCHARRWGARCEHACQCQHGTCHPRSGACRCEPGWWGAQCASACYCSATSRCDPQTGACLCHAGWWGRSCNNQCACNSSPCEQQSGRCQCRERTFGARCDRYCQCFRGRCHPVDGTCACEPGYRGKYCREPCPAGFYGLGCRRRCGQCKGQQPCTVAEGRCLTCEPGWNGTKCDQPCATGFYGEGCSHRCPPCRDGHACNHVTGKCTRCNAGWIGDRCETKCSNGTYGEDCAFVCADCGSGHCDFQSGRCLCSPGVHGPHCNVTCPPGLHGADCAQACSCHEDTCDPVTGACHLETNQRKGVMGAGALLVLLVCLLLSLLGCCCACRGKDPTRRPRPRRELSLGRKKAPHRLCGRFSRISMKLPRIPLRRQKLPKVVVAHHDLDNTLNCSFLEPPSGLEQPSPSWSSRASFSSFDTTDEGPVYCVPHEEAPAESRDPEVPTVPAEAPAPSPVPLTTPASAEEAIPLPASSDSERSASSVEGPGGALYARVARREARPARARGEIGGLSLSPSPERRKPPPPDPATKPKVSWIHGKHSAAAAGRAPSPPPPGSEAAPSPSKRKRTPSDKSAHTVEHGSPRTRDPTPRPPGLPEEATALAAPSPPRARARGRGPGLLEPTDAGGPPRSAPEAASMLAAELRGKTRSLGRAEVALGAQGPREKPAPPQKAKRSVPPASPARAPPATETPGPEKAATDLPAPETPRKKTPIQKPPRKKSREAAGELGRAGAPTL
UniProt P02769, residues 25-607: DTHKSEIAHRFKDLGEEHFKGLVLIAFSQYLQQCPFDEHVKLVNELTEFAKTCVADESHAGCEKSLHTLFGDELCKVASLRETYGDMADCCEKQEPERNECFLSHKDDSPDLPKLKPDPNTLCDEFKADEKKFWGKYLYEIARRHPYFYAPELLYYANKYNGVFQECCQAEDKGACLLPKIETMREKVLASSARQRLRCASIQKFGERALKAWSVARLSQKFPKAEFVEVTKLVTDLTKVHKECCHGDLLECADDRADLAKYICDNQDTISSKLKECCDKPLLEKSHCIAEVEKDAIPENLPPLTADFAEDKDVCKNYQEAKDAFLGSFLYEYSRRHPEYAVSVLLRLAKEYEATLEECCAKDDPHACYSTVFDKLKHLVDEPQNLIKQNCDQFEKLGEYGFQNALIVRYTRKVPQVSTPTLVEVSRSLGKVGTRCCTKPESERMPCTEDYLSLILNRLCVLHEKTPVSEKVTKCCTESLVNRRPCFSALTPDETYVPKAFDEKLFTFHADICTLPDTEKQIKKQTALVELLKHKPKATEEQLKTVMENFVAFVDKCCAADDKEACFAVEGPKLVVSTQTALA

No constants are given. Whether binding was seen depends on the method and setting.

Assay [1] deals with full‐length SREC‐II at the surface of stably transfected CHO cells (UniProt Q96GP6). The assay is described as follows: flow cytometry on cells; SREC-II-overexpressing CHO cells against nontransfected CHO cells, on ice, PBS with 3% BSA; C1q 80 µg/mL (40 min, detected with anti-C1q and Cy-3 anti-mouse antibodies); Alexa Fluor 488-MalBSA or Alexa Fluor 568-CRT at 1, 5 and 10 µg/mL (30 min); MFI ratio; only the binder purified. On the technique in general: A flow cytometer gives signals particle by particle.

Assay [2] addresses T1, SR‐F1(20‐421), SR‐F1 ectodomain (human) (UniProt Q14162).
T1 sequence: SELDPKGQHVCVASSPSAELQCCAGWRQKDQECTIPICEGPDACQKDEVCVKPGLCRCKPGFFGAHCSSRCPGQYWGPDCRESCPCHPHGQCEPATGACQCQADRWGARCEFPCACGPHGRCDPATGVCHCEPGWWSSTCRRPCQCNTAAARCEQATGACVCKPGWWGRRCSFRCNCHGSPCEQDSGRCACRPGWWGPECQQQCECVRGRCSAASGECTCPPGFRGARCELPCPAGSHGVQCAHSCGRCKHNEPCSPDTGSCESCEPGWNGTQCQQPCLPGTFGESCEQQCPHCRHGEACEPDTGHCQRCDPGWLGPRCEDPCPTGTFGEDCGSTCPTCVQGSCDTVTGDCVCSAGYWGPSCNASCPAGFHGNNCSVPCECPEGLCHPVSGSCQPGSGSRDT
The assay is described as follows: SPR; soluble ligands (MalBSA 50-800 nM, BSA, AcBSA 1 µM, C1q-CLR and C1q-GR 500 nM) injected over immobilized SREC-II(44-442) or SR-F1(20-421); CM5, amine coupling; TBS pH 7.4, 2 mM CaCl2, surfactant P20 (TBS-Ca-P); 20 µL/min; 25 °C; both purified. In general terms: SPR reads the build-up and loss of mass on a sensor chip optically.

For “Alexa Fluor 568‐labelled recombinant human CRT (from UniProt P27797 18-417)”, the binding entry in assay [1] is “no binding (tested: 1, 5 and 10 µg·mL^−1)”.

Regarding “BSA (unmodified) (from UniProt P02769 25-607)”, the binding entry in assay [2] is “no binding”.
